Data as given in article PMC10849765.
These are yes or no findings as the source states them, for the method shown. Binding seen in cells or lysates may run through a third protein. Some binding calls cover weakened binding; strength is not graded here.

The chains behind the UniProt entries cited, without tags or fusion partners. Where a name states a change or a piece, a line headed by the entry shows the natural chain unless it says otherwise. A line that says so, or that is headed by a name, gives the form on record, which may keep a tag or linker. Residues count along the entry.
UniProt O00571: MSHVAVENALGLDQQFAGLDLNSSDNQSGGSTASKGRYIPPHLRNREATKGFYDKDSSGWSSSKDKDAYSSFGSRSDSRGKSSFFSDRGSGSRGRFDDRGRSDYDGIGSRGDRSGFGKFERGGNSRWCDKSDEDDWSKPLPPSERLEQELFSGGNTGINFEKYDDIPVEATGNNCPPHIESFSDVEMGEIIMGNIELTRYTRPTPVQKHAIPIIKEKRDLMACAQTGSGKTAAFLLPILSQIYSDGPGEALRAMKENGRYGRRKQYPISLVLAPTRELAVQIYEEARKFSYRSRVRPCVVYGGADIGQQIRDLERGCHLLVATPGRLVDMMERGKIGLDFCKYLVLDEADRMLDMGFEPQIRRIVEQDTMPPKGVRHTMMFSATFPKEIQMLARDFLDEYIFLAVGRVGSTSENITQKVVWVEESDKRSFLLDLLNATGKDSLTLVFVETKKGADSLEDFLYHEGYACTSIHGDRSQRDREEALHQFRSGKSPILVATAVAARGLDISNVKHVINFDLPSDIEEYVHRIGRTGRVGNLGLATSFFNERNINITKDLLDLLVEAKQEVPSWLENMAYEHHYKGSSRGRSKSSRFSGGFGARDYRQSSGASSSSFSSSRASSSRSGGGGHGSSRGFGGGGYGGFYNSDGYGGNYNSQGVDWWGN
YC156-tDDX3X-C (truncated DDX3X fused to a C-terminal YFP fragment): residues 125-662 of O00571
ARRB1-Δexon 13 (β-arrestin 1 isoform lacking exon 13) (P49407, form named): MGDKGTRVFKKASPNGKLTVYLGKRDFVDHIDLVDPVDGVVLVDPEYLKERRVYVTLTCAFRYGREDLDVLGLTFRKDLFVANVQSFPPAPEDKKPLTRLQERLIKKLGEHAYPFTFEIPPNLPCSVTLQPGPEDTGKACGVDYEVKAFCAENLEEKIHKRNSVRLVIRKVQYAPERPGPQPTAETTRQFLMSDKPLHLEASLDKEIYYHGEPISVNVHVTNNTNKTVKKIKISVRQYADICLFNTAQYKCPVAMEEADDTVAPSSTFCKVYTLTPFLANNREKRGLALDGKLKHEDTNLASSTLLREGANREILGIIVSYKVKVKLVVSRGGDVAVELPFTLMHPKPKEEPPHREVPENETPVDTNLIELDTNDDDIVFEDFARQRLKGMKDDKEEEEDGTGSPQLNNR
UniProt Q07955: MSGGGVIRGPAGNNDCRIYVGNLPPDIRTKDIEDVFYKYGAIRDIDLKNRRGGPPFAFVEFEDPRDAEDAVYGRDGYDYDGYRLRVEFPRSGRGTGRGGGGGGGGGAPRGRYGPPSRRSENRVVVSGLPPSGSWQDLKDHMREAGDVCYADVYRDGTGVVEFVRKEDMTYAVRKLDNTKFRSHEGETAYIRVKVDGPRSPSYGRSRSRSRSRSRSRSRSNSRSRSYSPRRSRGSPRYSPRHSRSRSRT
UniProt P06733: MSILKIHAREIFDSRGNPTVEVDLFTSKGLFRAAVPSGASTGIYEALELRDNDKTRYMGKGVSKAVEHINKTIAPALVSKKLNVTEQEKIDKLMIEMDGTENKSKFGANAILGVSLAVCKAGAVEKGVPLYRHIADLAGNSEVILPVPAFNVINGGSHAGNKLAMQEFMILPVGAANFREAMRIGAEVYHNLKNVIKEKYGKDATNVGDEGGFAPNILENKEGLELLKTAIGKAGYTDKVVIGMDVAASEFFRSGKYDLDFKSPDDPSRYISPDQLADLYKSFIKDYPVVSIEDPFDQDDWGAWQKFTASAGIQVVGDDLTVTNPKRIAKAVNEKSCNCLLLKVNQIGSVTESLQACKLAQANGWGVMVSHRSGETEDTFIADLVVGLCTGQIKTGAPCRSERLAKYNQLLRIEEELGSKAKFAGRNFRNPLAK
UniProt Q62167: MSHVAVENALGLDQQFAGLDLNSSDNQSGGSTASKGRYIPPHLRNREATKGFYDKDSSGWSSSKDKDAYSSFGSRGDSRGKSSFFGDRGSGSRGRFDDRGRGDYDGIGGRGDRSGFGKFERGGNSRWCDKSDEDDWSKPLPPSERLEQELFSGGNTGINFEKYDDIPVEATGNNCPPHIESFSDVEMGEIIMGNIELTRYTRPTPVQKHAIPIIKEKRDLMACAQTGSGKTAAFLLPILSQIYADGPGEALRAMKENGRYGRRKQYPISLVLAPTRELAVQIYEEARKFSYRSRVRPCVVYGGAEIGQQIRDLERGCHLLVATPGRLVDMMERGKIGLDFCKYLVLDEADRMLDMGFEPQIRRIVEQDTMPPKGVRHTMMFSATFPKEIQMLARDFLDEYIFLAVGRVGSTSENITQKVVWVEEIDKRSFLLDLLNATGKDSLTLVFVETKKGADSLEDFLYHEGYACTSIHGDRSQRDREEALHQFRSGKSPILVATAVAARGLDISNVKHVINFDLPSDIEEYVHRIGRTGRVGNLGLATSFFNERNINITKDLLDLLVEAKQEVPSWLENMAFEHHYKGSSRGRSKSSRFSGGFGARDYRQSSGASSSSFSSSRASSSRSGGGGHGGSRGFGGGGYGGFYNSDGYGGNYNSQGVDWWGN

Experiments:
[1] = biological target: T1, AEP of the DDX3X domain co-IP assay (human) (UniProt Q99538); assay: co-IP; domain assay: different DDX3X domains tested for interaction with AEP
T1 sequence: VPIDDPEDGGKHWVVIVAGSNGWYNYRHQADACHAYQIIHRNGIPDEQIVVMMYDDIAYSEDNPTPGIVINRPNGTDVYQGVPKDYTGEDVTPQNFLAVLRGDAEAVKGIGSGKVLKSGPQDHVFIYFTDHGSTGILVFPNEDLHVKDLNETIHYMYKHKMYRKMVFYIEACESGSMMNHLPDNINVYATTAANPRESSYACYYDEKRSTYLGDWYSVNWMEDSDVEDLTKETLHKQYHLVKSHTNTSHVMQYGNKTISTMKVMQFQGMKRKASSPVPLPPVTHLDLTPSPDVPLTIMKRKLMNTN

[2] = biological target: tDDX3X-C expressed in U87-MG and MDA-MB-231 cells (co-IP) (human) (UniProt O00571); assay: co-IP; co-IP from U87-MG and MDA-MB-231 cells expressing tDDX3X-C (1 × 10^7 cells), endogenous partners
[3] = biological target: T2, asparagine endopeptidase (AEP), endogenous in human tumor cells (human (endogenous in U87-MG, U251-MG, MDA-MB-231)) (UniProt Q99538); assay: co-IP; endogenous co-IP in U87-MG, U251-MG and MDA-MB-231 cells that underwent hypoxia and nutrient deprivation
T2 sequence: T1 sequence

[4] = biological target: ARRB1-Δexon 13 (β-arrestin 1 isoform lacking exon 13) (human) (UniProt P49407); assay: co-IP; co-IP of ARRB1-Δexon 13, ARRB1-WT and ENO1
[5] = biological target: tDDX3X-C of the exogenous co-IP in HEK293T cells (human) (UniProt O00571); assay: co-IP; exogenous co-IP, HEK293T cells transfected with the indicated plasmids
[6] = biological target: YC156-tDDX3X-C (truncated DDX3X fused to a C-terminal YFP fragment) (human) (UniProt O00571); assay: split reporter; BiFC with split YFP (YN155/YC156) in HEK293T cells, confocal microscopy 48 hours after transfection
[7] = biological target: T3, asparagine endopeptidase (AEP), human, re-expressed in AEP-KO mouse embryonic fibroblasts (human) (UniProt Q99538); assay: co-IP; AEP or IgG immunoprecipitates of the AEP-re-expressing MEFs, immunoblot for DDX3X
T3 sequence: T1 sequence

N-terminus of DDX3X (amino acids 1-159) (from UniProt O00571 1-159) (domain or fragment)
binding [1]: binds

SRSF1, endogenous in U87-MG and MDA-MB-231 cells (from UniProt Q07955 1-248)
binding [2]: binds

DEAD-box helicase 3 X-linked (DDX3X), endogenous in human tumor cells (from UniProt O00571 1-662)
binding [3]: binds

ENO1 (from UniProt P06733 1-434) (enzyme)
binding [4]: binds

serine/arginine rich splicing factor 1 (SRSF1) of the exogenous co-IP in HEK293T cells (from UniProt Q07955 1-248)
binding [5]: binds

YN155-SRSF1 (N-terminal YFP fragment fused to serine/arginine rich splicing factor 1) (from UniProt Q07955 1-248)
binding [6]: binds

DEAD-box helicase 3 X-linked (DDX3X), endogenous in mouse embryonic fibroblasts (from UniProt Q62167 1-662)
binding [7]: binds
